{"source": "PubChem BioAssay AID504808 (Drosophila RNAi Screening Center, 2011)", "aim": "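Chromatin factors that keep E2F targets switched off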 (primary screen)", "cells": "Drosophila S2 cells", "reagent": "long dsRNA against Drosophila genes", "measured": "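Dual luciferase plate measurements; E2F-specific signal taken as firefly over Renilla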", "scale": "E2F firefly: higher = more E2F reporter activity; Renilla normaliser: higher = more normaliser reporter signal", "rule for the call": "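Called active if the normalised E2F reporter went up by over 50%; the cutoff is arbitrary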", "note": "The deposit covers about 21,000 reagents; this is an unselected part of those that have a named target and a result. Over the whole deposit, 18 (0.084%) got an active call. 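Raw counts without plate normalisation, one of two replicates; the ratio scores behind the calls were not deposited.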 A plus sign joins genes that one reagent is predicted to hit. Not given: the amount of reagent, the time to read-out."}
{"target": "pcm (pacman)", "amplicon": "DRSC20361", "E2F firefly, rep 1": 1.54e5, "Renilla normaliser, rep 1": 7167, "Call": "inactive"}
{"target": "Wnk (Wnk kinase)", "amplicon": "DRSC11813", "E2F firefly, rep 1": 1.04e5, "Renilla normaliser, rep 1": 4771, "Call": "inactive"}
{"target": "Lnpk (Lunapark)", "amplicon": "DRSC07254", "E2F firefly, rep 1": 3484, "Renilla normaliser, rep 1": 277, "Call": "inactive"}
{"target": "CG15572", "amplicon": "DRSC18060", "E2F firefly, rep 1": 1.16e5, "Renilla normaliser, rep 1": 6103, "Call": "inactive"}
{"target": "Vajk4", "amplicon": "DRSC06589", "E2F firefly, rep 1": 79474, "Renilla normaliser, rep 1": 3255, "Call": "inactive"}
{"target": "Vajk4", "amplicon": "DRSC07003", "E2F firefly, rep 1": 1.51e5, "Renilla normaliser, rep 1": 5471, "Call": "inactive"}
{"target": "rg (rugose)", "amplicon": "DRSC17377", "E2F firefly, rep 1": 71555, "Renilla normaliser, rep 1": 2258, "Call": "inactive"}
{"target": "rg (rugose)", "amplicon": "DRSC17726", "E2F firefly, rep 1": 7432, "Renilla normaliser, rep 1": 796, "Call": "inactive"}
{"target": "rg (rugose)", "amplicon": "DRSC18049", "E2F firefly, rep 1": 1.03e5, "Renilla normaliser, rep 1": 5332, "Call": "inactive"}
{"target": "apolpp (apolipophorin)", "amplicon": "DRSC17216", "E2F firefly, rep 1": 2002, "Renilla normaliser, rep 1": 816, "Call": "inactive"}
{"target": "CG16903", "amplicon": "DRSC18561", "E2F firefly, rep 1": 1.28e5, "Renilla normaliser, rep 1": 6971, "Call": "inactive"}
{"target": "asRNA:CR42743 + CG34162", "amplicon": "DRSC01190", "E2F firefly, rep 1": 1.37e5, "Renilla normaliser, rep 1": 6966, "Call": "inactive"}

An excerpt from the list above, for reference:
{"target": "CG16903", "amplicon": "DRSC18561", "E2F firefly, rep 1": 1.28e5, "Renilla normaliser, rep 1": 6971, "Call": "inactive"}
{"target": "asRNA:CR42743 + CG34162", "amplicon": "DRSC01190", "E2F firefly, rep 1": 1.37e5, "Renilla normaliser, rep 1": 6966, "Call": "inactive"}
